# Among all 140,000 compounds or so, about 4,300 (3.1%) were called active. Inconclusive means that the source gave no clear call. Such entries were picked first, then a sample of the others.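 How the source made its calls: active means readout at or below -70, meaning at least 70% loss of cells showing the perinucleolar compartment, a nuclear body marking cancer cells; inconclusive means readout between -30 and a set limit; inactive means the rest.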
# Assay: High Content Assay for Compounds that inhibit the Assembly of the Perinucleolar Compartment;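 further: plate controls were DMSO wells for no effect and camptothecin positive control wells for full effect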
# Settings: PC3M PTB-GFP, PNC prevalence imaging, 16 h; at 10 µM; hits give low values
# How it was run: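 Compounds are pinned in duplicate onto adhered PC3M cells stably expressing GFP-tagged PTB and incubated 16 h at 37 C. Cells are then fixed, nuclei stained with Hoechst, and PNC-positive cells counted.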
row,Compound,"activity change (PNC), negative = inhibition"
1,COCCN(CCOC)Cc1c(O)ccc2c3c(c(=O)oc12)CCC3,inconclusive: -36.9%
2,CCCCOc1ccccc1NC(=O)CC1SC(=NCC)N(CC)C1=O (centres undefined),inconclusive: -45.4%
3,CC1=C(C(N)=O)C(c2ccncc2)n2nc(-c3ccccc3Cl)nc2N1 (centres undefined),inactive: 43.9%
4,CCNC(=O)C(C)Sc1ccc(Cl)cc1 (centres undefined),inconclusive: -43.5%
5,Cc1cc(C)cc(NC(=S)NCCc2ccc(S(N)(=O)=O)cc2)c1,inactive: -11.1%
6,Cc1c(NC(=O)COC(=O)c2cc(-c3ccc(-c4ccccc4)cc3)nc3ccccc23)c(=O)n(-c2ccccc2)n1C,active: -113%
7,C(=N\n1cnc2ccccc21)/c1cccnc1,inactive: 7.3%
8,CCCCC(NC(C)=O)c1nc2ccccc2n1CCC (centres undefined),inconclusive: -43.3%
9,COc1ccc(-c2oc(NC(=O)CCl)c(C#N)c2-c2ccc(OC)cc2)cc1,inactive: 25.3%
10,Cc1cc(C(=O)Nc2cccc(O)c2)co1,inconclusive: -38.6%
11,COc1ccccc1C(=O)NCc1ccccc1,active: -114%
12,CS(=O)(=O)N1CCN(C(=O)c2cc(-c3ccncc3)nc3ccc(Cl)cc23)CC1,inconclusive: -36.5%
13,Cc1ccc(C(=O)NNC(=O)OC(C)(C)C)c(Cl)c1,inconclusive: -57%
14,CC(C)CCNC(=O)CN(CC1CCCO1)C(=O)CCC(=O)Nc1ccccn1 (centres undefined),inactive: 25%
15,O=C1CC(N(CCc2ccccc2)C(=S)Nc2ccccc2)C(=O)N1c1ccc(Br)cc1 (centres undefined),inactive: -13.5%
16,O=C(Nc1ccccc1F)C1CC1c1ccccc1 (centres undefined),inconclusive: -50.2%
17,COc1ccc(C(=O)Nc2ccccc2C(=O)N/N=C/c2ccco2)cc1,inconclusive: -37%
18,Cc1ccc(SCc2nnc(NC(=O)c3ccccc3)s2)cc1,inactive: 22.9%
19,CCN1CCN(S(=O)(=O)c2cccs2)CC1,inconclusive: -35.1%
20,CCCC(=O)Nc1c(-c2ccccc2)c(=O)c(C)nn1-c1ccc(Cl)cc1,inconclusive: -31.5%

# Taken from above.
# Value of CC1=C(C(N)=O)C(c2ccncc2)n2nc(-c3ccccc3Cl)nc2N1 (centres undefined) under activity change (PNC), negative = inhibition: inactive: 43.9%
# Value of COc1ccc(C(=O)Nc2ccccc2C(=O)N/N=C/c2ccco2)cc1 under activity change (PNC), negative = inhibition: inconclusive: -37%
# Value of COCCN(CCOC)Cc1c(O)ccc2c3c(c(=O)oc12)CCC3 under activity change (PNC), negative = inhibition: inconclusive: -36.9%

# Later entries.

row,Compound,"activity change (PNC), negative = inhibition"
1,COc1ccc(Cn2c(-c3ccc(OC)cc3)nc3c(c(=O)c4ccccc4n3C)c2=O)cc1,inactive: -7.73%
2,COC(=O)c1cc(C)sc1NC(=O)C1C2C=CC(CC2)C1C(=O)O (centres undefined),inconclusive: -48.4%
3,CC1Sc2ccc(C(=O)O)cc2NC1=O (centres undefined),inactive: 37.7%
4,CCc1c(O)nc(SCC(=O)Nc2ccc3c(c2)CCC3)[nH]c1=O,inactive: -8.1%
5,C=CCNC(=O)CSc1ccc(Cl)cc1,inconclusive: -43.7%
6,C=C(C)n1c(=O)[nH]c2ccccc21,inconclusive: -31.4%
7,O=C(COc1ccc(Cl)cc1Cl)N/N=C1\CCCc2ccccc21,inconclusive: -30.7%
8,O=C(Nc1cc(Sc2nc3ccccc3s2)cc([N+](=O)[O-])c1)c1ccccc1F,inactive: 16.8%
9,O=C(Cn1c(=O)oc2cc(S(=O)(=O)N3CCCC3)ccc21)NC1CCCc2ccccc21 (centres undefined),inconclusive: -52.7%
10,COC(=O)c1[nH]nc2c1C(=O)N(Cc1ccccc1)C2=O,inactive: 26.4%
11,O=C(Cc1cccs1)NCc1ccncc1,inconclusive: -52.7%
12,CCOc1ccc(NC(=S)Nc2ccc(OC(F)(F)F)cc2)cc1,inactive: 37.9%
13,CCOc1ccc2nc(NC(=O)c3cnccn3)sc2c1,inactive: -11.1%
14,CCC(=O)NC(=S)NNC(=O)c1ccc(OC)cc1,inconclusive: -70.8%
15,O=c1cc(O)c2sc(Nc3cccc(C(F)(F)F)c3)nc2[nH]1,inconclusive: -62.8%
16,CCOC(=O)C1=C(CNC2CCCCC2)NC(=O)NC1c1cc(C)ccc1C (centres undefined),inconclusive: -37.4%
17,Cc1csc2ncc(C(=O)NC(C)c3ccccc3)c(=O)n12 (centres undefined),inconclusive: -52.3%
18,O=C(CCCn1c(=O)c2sccc2n(Cc2ccc(F)cc2)c1=O)NCc1ccco1,inconclusive: -78.8%
19,Cc1ccc(S(=O)(=O)c2cc3c(=O)n4ccccc4nc3n(Cc3ccco3)c2=N)cc1,inconclusive: -34.5%
20,CCCCc1ccc(S(=O)(=O)NNC(=S)NCc2ccco2)cc1,inconclusive: -36.7%

row,Compound,"activity change (PNC), negative = inhibition"
1,CCCC(=O)Nc1ccc(-c2nc3cc(C)c(C)cc3o2)c(O)c1,inactive: 30.8%
2,COc1ccccc1C1NC=C([N+](=O)[O-])C=C1[N+](=O)[O-] (centres undefined),inactive: 16.1%
3,N#C/C(=C\c1cc2ccccc2nc1N1CCOCC1)C(=O)Nc1ccc(N2CCOCC2)cc1,inconclusive: -38.9%
4,CC(C)OC(=O)c1cccc(C(=O)O)n1,inconclusive: -52%
5,CCOP(=O)(OCC)c1nc(-c2ccc(C)cc2)oc1NCc1ccccc1,inconclusive: -38.9%
6,Cc1ccc2c(c1)C1NC(=S)NC(C)(O2)C1C(=O)Nc1ccc(Cl)cc1 (centres undefined),inconclusive: -44.3%
7,O=C(CN1CCN(S(=O)(=O)c2ccc(Br)cc2)CC1)Nc1ccc(F)cc1,inconclusive: -79.5%
8,Cc1cc(NC(=O)C2CC(c3cccc(Br)c3)=NO2)no1 (centres undefined),inconclusive: -47.5%
9,COc1ccccc1C(=O)N1CCNC(=O)C1CC(=O)Nc1cccc(C)c1 (centres undefined),inconclusive: -36.6%
10,NC(=O)c1ccc(NS(=O)(=O)c2ccccc2F)cc1,inconclusive: -36.8%
11,COC(=O)c1ccc(Sc2ccccc2NS(=O)(=O)c2ccc(OC)cc2)nc1,inactive: 1.48%
12,CC(=O)c1cc2c(cc1NC(=O)CSc1nc3ccc(C)cc3[nH]1)OCO2,inconclusive: -45.5%
13,Cc1cc(/C=C(\C#N)C(=O)NCc2cccs2)c(C)n1-c1ccc([N+](=O)[O-])cc1,inconclusive: -64.7%
14,Cc1nnc(C)n1/N=C/c1ccc(C(C)C)cc1,inconclusive: -39.2%
15,CCCC(=O)NCc1ccc2c(c1)cc(C)n2C,inactive: 46.9%
16,CCOC(=O)C1CCN(C(=S)Nc2ccc(S(N)(=O)=O)cc2)CC1,inactive: 4%
17,CCOC(=O)c1sc(N/N=C/c2ccccc2)nc1C,inactive: 28%
18,CSc1nnc2c3ccccc3c3ccccc3c2n1,inconclusive: -31.6%
19,Cn1nnc(NCc2cc(Br)ccc2OCc2cccs2)n1,inconclusive: -34.8%

# Reference: PubChem BioAssay AID2417 (National Center for Advancing Translational Sciences (NCATS), 2010)
